{"source": "patent US20240238218A1", "about": "“[…] A […] ACTIVE COMPOUND AND METHOD OF PREPARATION THEREOF” (GW Research Limited, priority 2021, published 2024)", "test_system": "DBA/2 mice", "assay": "DBA/2 mouse audiogenic seizure test", "assay_type": "in vivo", "details": "180 mg/kg i.p., 30 min before the test; listed as valproate", "description": "The DBA/2 audiogenic seizure test, which detects anticonvulsant activity, follows that described by Dürmüller et al. (NeuroReport, vol. 4, no. 6, pages 683-686, 1993).\n60 male DBA/2 mice (3-4 weeks old) were included in the experiment (weight range 8-11 g at the beginning of the experiment). Animals were acclimatized to the test facility for 1 day after delivery and randomly housed in groups of 5 in macrolon cages on wood litter with free access to food and water.\nMice were individually transferred (at 3-5 minutes intervals) from the preparation room into an adjacent experimental room and body temperature was measured using a rectal thermometer. […] Upon activating the bell, the occurrences and latencies to wild running fits, clonic and tonic seizures were measured. Deaths were also recorded. […]\nThe test substance was evaluated at 4 doses, administered i.p. (10 mL/kg) 30 or 60 minutes before the test, and compared with a vehicle control group. […]\nQuantitative data (latencies) with the test substance were analyzed by comparing treated groups with vehicle control using Kruskal-Wallis test followed by Dunn's multiple comparisons test. Quantitative data with the reference substance were analyzed using Mann-Whitney U test.\nQuantal data (frequencies) were analyzed by comparing treated groups with vehicle control using Fisher's Exact Probability tests.", "note": "For at least one compound, name, drawing or mass did not settle the structure.", "data": [{"smiles": "CCCC(CCC)C(=O)O", "note": "[Valproate, reference compound]", "values": [{"measurement": "Death, Presence, Total", "result": "No deaths were observed"}]}]}
